# Test results as given in the supplement of paper PMC8728848.
# This is one part of the list.
# B1: Clec12b (Mus musculus), Q149M0 (protein)
# chain: MSDEVTYATLMLQDSARVRGNQDGNNLRKEGHPAQSSLWRGAALSLMTLCLVLVTGLVTLATMFLQVSNDINSDSEKLSQLQKSIHPQQDNLSESLNSSRKSLTEESLQSQISALLERQEQMATKLCKEFLIHASDHKCNPCPKTWQWYGNSCYYFSINEEKSWSDSRKDCIDKNATLVKIDSTEERDLLQSQLSLTFSFFWLGLSWNSSGRNWLWEDGSFPPPTLFSDKELASFNGSRDCAYFERGNIYASRCSAEIPWICEKTASLVKTEDLD
# Legend:
# Assay in all cases: glycan array binding signal (z-score within array); higher = stronger binding
# Settings in all cases: glycan notation: IUPAC condensed, linker removed
# Fuc(a1-2)Gal = target: Fuc(a1-2)Gal
# Outline: (§1)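 The binding signal is a Z-score computed within each array. Data were drawn from 3228 arrays in the Consortium for Functional Glycomics database, restricted to those with a known protein sequence. Scores were averaged over arrays of the same protein sequence at different concentrations or buffers, and over linkers, and negative values can be taken as non-binding.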
# Fuc(a1-2)Gal(b1-3)GalNAc = target: Fuc(a1-2)Gal(b1-3)GalNAc
# Outline: as §1
# [1] = target: Fuc(a1-2)Gal(b1-3)GalNAc(a1-3)[Fuc(a1-2)]Gal(b1-4)Glc
# Outline: as §1
# [2] = target: Fuc(a1-2)Gal(b1-3)GalNAc(a1-3)[Fuc(a1-2)]Gal(b1-4)GlcNAc
# Outline: as §1
# [3] = target: Fuc(a1-2)Gal(b1-3)GalNAc(b1-3)Gal
# Outline: as §1
# [4] = target: Fuc(a1-2)Gal(b1-3)GalNAc(b1-3)Gal(a1-4)Gal(b1-4)Glc
# Outline: as §1
# [5] = target: Fuc(a1-2)Gal(b1-3)GalNAc(b1-4)[Neu5Ac(a2-3)]Gal(b1-4)Glc
# Outline: as §1
# Fuc(a1-2)Gal(b1-3)GlcNAc = target: Fuc(a1-2)Gal(b1-3)GlcNAc
# Outline: as §1
# [6] = target: Fuc(a1-2)Gal(b1-3)GlcNAc(b1-2)Man(a1-3)[Fuc(a1-2)Gal(b1-3)GlcNAc(b1-2)Man(a1-6)]Man(b1-4)GlcNAc(b1-4)GlcNAc
# Outline: as §1
# [7] = target: Fuc(a1-2)Gal(b1-3)GlcNAc(b1-2)Man(a1-3)[Fuc(a1-2)Gal(b1-3)GlcNAc(b1-2)Man(a1-6)]Man(b1-4)GlcNAc(b1-4)[Fuc(a1-6)]GlcNAc
# Outline: as §1
# [8] = target: Fuc(a1-2)Gal(b1-3)GlcNAc(b1-3)Gal(b1-4)Glc
# Outline: as §1
# [9] = target: Fuc(a1-2)Gal(b1-3)GlcNAc(b1-3)GalNAc
# Outline: as §1
# [10] = target: Fuc(a1-2)Gal(b1-3)GlcNAc(b1-3)[Fuc(a1-2)Gal(b1-3)GlcNAc(b1-6)]GalNAc
# Outline: as §1
# [11] = target: Fuc(a1-2)Gal(b1-3)GlcNAc(b1-3)[Gal(b1-4)GlcNAc(b1-6)]Gal(b1-4)Glc
# Outline: as §1
# [12] = target: Fuc(a1-2)Gal(b1-3)GlcNAc(b1-3)[Neu5Ac(a2-6)Gal(b1-4)GlcNAc(b1-6)]Gal(b1-4)Glc
# Outline: as §1
# [13] = target: Fuc(a1-2)Gal(b1-3)GlcNAc6S
# Outline: as §1
# [14] = target: Fuc(a1-2)Gal(b1-3)[Fuc(a1-4)]GlcNAc
# Outline: as §1
# [15] = target: Fuc(a1-2)Gal(b1-3)[Fuc(a1-4)]GlcNAc(b1-2)Man(a1-3)[Fuc(a1-2)Gal(b1-3)[Fuc(a1-4)]GlcNAc(b1-2)Man(a1-3)]Man(b1-4)GlcNAc(b1-4)GlcNAc
# Outline: as §1
# [16] = target: Fuc(a1-2)Gal(b1-3)[Fuc(a1-4)]GlcNAc(b1-2)Man(a1-3)[Fuc(a1-2)Gal(b1-3)[Fuc(a1-4)]GlcNAc(b1-2)Man(a1-6)]Man(b1-4)GlcNAc(b1-4)[Fuc(a1-6)]GlcNAc(b1-4)[Fuc(a1-6)]GlcNAc
# Outline: as §1
# [17] = target: Fuc(a1-2)Gal(b1-3)[Fuc(a1-4)]GlcNAc(b1-3)[Fuc(a1-3)[Gal(b1-4)]GlcNAc(b1-6)]Gal(b1-4)Glc
# Outline: as §1
# [18] = target: Fuc(a1-2)Gal(b1-3)[Fuc(a1-4)]GlcNAc(b1-3)[Gal(b1-4)GlcNAc(b1-6)]Gal(b1-4)Glc
# Outline: as §1
# [19] = target: Fuc(a1-2)Gal(b1-4)Fuc(a1-3)]GlcNAc(b1-2)Man(a1-3)[Fuc(a1-2)Gal(b1-4)[Fuc(a1-3)]GlcNAc(b1-2)Man(a1-6)]Man(b1-4)GlcNAc(b1-4)GlcNAc
# Outline: as §1
# Fuc(a1-2)Gal(b1-4)Glc = target: Fuc(a1-2)Gal(b1-4)Glc
# Outline: as §1
# Fuc(a1-2)Gal(b1-4)Glc6S = target: Fuc(a1-2)Gal(b1-4)Glc6S
# Outline: as §1
# Fuc(a1-2)Gal(b1-4)GlcNAc = target: Fuc(a1-2)Gal(b1-4)GlcNAc
# Outline: as §1
# [20] = target: Fuc(a1-2)Gal(b1-4)GlcNAc(b1-2)Man
# Outline: as §1
# [21] = target: Fuc(a1-2)Gal(b1-4)GlcNAc(b1-2)Man(a1-3)[Fuc(a1-2)Gal(b1-4)GlcNAc(b1-2)Man(a1-6)]Man(b1-4)GlcNAc(b1-4)GlcNAc
# Outline: as §1
# [22] = target: Fuc(a1-2)Gal(b1-4)GlcNAc(b1-2)Man(a1-3)[Fuc(a1-2)Gal(b1-4)GlcNAc(b1-2)Man(a1-6)]Man(b1-4)GlcNAc(b1-4)[Fuc(a1-6)]GlcNAc
# Outline: as §1
# [23] = target: Fuc(a1-2)Gal(b1-4)GlcNAc(b1-2)[Fuc(a1-2)Gal(b1-4)GlcNAc(b1-4)]Man(a1-3)[Fuc(a1-2)Gal(b1-4)GlcNAc(b1-2)Man(a1-6)]Man(b1-4)GlcNAc(b1-4)GlcNAc
# Outline: as §1
# [24] = target: Fuc(a1-2)Gal(b1-4)GlcNAc(b1-3)Gal(b1-4)GlcNAc
# Outline: as §1
binder,measurement,setting,value
B1,glycan array binding signal (z-score),Fuc(a1-2)Gal,-0.119
same,glycan array binding signal (z-score),Fuc(a1-2)Gal(b1-3)GalNAc,-0.451
same,glycan array binding signal (z-score),[1],0.847
same,glycan array binding signal (z-score),[2],0.211
same,glycan array binding signal (z-score),[3],-0.622
same,glycan array binding signal (z-score),[4],-0.395
same,glycan array binding signal (z-score),[5],2.03
same,glycan array binding signal (z-score),Fuc(a1-2)Gal(b1-3)GlcNAc,0.018
same,glycan array binding signal (z-score),[6],2.66
same,glycan array binding signal (z-score),[7],0.184
same,glycan array binding signal (z-score),[8],3.25
same,glycan array binding signal (z-score),[9],-0.484
same,glycan array binding signal (z-score),[10],0.827
same,glycan array binding signal (z-score),[11],-0.698
same,glycan array binding signal (z-score),[12],-0.497
same,glycan array binding signal (z-score),[13],-0.334
same,glycan array binding signal (z-score),[14],-0.148
same,glycan array binding signal (z-score),[15],2.58
same,glycan array binding signal (z-score),[16],-0.552
same,glycan array binding signal (z-score),[17],-0.687
same,glycan array binding signal (z-score),[18],-0.776
same,glycan array binding signal (z-score),[19],1.06
same,glycan array binding signal (z-score),Fuc(a1-2)Gal(b1-4)Glc,-0.506
same,glycan array binding signal (z-score),Fuc(a1-2)Gal(b1-4)Glc6S,-0.606
same,glycan array binding signal (z-score),Fuc(a1-2)Gal(b1-4)GlcNAc,-0.547
same,glycan array binding signal (z-score),[20],-0.154
same,glycan array binding signal (z-score),[21],0.998
same,glycan array binding signal (z-score),[22],-0.001
same,glycan array binding signal (z-score),[23],-0.153
same,glycan array binding signal (z-score),[24],1.07

# Shown with bars between the fields: part of the list above
binder | measurement | setting | value
B1 | glycan array binding signal (z-score) | [9] | -0.484
same | glycan array binding signal (z-score) | [21] | 0.998
